Measurements reported in the supplement of paper PMC10849652.
The list shows a part of the results.

By UniProt entry, the sequences of proteins in these tests, tags left out. Where a name states a change or a piece, a line headed by the entry shows the natural chain unless it says otherwise.
UniProt O15269: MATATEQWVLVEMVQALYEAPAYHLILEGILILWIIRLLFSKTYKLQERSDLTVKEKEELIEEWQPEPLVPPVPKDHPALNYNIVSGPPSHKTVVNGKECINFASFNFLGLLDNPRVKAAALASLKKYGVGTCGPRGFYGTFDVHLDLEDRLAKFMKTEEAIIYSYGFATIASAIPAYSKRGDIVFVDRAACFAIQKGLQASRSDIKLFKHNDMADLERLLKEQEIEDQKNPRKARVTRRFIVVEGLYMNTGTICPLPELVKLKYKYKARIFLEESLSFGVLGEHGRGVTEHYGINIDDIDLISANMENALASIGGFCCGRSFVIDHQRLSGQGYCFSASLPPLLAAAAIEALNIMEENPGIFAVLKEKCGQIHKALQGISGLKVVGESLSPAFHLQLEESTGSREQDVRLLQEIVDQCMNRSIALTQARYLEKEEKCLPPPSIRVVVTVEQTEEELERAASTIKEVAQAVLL
UniProt Q08945, whole entry, looked up: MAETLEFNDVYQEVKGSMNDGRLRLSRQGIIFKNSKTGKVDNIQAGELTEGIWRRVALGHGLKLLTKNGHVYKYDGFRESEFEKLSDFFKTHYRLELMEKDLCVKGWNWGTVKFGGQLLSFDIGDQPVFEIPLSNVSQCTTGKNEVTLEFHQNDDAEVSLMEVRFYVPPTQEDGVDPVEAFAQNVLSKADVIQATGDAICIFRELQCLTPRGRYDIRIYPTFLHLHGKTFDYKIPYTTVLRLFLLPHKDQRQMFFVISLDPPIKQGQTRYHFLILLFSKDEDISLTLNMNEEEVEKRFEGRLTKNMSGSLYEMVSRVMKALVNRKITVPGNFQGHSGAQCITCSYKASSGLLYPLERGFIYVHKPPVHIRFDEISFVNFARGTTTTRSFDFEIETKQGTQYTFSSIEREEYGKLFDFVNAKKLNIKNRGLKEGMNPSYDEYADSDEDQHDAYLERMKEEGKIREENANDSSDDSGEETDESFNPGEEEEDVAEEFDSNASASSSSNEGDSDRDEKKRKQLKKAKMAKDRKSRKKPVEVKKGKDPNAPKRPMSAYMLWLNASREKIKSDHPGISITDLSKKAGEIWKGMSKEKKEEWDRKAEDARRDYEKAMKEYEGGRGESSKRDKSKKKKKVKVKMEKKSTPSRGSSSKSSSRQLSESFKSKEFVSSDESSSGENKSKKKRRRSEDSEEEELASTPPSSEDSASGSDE
UniProt P50502: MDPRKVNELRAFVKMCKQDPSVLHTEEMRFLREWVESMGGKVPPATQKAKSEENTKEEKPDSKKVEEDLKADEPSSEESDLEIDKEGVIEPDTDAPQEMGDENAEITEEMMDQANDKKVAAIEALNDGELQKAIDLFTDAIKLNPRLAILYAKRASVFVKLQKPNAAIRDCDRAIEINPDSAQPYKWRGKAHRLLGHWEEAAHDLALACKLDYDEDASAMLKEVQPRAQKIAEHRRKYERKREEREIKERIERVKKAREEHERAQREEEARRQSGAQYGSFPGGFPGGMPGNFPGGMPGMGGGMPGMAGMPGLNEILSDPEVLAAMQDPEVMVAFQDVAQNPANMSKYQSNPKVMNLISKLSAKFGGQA
UniProt P49458: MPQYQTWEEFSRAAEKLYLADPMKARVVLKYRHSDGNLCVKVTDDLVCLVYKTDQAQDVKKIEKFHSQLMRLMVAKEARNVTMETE
UniProt P35270: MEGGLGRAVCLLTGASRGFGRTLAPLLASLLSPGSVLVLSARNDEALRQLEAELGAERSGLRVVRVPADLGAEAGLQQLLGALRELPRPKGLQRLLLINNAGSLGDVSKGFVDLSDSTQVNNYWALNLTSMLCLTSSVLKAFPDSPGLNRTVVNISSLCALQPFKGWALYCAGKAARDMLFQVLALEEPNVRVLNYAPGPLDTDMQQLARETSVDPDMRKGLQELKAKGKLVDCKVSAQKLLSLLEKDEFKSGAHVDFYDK
UniProt Q9BVQ7: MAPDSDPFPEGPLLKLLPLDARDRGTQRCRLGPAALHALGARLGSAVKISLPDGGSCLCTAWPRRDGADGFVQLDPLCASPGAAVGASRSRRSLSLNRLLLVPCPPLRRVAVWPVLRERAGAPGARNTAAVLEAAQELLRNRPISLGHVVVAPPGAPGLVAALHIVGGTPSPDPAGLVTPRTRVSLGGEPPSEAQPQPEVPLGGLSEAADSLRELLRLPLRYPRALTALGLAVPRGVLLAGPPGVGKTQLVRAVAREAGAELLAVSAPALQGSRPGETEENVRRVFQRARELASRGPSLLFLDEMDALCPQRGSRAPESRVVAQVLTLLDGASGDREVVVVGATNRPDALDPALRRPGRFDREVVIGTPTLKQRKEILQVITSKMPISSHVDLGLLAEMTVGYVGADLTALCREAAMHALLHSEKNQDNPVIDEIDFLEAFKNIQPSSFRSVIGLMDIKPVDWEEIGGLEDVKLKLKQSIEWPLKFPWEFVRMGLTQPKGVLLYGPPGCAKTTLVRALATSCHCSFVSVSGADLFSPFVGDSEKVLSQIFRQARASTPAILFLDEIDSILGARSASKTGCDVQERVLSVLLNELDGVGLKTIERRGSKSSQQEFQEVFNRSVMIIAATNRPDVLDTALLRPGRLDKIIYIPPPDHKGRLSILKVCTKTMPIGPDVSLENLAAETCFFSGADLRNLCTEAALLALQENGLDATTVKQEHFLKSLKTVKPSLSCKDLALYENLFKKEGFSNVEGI
UniProt Q5W111: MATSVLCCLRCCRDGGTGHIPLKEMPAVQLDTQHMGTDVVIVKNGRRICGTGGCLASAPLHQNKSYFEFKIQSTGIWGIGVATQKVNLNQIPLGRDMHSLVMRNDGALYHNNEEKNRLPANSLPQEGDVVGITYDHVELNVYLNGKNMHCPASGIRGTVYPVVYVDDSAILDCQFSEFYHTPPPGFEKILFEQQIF
UniProt O95772: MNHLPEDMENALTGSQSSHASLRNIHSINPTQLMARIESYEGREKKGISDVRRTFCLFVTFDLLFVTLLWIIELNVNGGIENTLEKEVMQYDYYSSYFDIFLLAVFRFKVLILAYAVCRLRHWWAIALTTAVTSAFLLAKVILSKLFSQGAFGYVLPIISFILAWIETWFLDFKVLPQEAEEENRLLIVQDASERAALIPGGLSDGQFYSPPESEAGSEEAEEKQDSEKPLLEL
UniProt Q9BXP5: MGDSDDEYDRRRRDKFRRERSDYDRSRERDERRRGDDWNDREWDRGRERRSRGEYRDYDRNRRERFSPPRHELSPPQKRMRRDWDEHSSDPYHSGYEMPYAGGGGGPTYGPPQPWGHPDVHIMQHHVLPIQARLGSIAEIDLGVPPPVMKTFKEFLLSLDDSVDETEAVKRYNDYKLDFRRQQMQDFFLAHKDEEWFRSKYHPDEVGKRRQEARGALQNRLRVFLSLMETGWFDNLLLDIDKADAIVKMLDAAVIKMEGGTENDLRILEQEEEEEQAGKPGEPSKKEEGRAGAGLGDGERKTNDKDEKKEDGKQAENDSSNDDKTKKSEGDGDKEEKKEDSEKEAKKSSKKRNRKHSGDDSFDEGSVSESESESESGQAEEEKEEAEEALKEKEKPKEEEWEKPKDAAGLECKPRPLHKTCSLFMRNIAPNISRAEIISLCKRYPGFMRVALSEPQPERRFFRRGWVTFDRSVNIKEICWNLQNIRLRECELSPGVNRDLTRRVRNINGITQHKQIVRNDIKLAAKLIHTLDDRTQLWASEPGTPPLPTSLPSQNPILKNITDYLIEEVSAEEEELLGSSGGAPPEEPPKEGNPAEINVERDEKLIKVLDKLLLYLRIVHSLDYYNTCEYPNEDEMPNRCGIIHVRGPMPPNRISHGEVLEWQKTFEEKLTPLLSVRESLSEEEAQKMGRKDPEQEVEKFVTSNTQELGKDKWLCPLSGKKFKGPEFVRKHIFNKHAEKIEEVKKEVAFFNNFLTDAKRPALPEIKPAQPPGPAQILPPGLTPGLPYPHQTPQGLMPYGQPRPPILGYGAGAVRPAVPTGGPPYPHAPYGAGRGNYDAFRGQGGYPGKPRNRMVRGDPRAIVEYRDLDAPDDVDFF
UniProt Q05519: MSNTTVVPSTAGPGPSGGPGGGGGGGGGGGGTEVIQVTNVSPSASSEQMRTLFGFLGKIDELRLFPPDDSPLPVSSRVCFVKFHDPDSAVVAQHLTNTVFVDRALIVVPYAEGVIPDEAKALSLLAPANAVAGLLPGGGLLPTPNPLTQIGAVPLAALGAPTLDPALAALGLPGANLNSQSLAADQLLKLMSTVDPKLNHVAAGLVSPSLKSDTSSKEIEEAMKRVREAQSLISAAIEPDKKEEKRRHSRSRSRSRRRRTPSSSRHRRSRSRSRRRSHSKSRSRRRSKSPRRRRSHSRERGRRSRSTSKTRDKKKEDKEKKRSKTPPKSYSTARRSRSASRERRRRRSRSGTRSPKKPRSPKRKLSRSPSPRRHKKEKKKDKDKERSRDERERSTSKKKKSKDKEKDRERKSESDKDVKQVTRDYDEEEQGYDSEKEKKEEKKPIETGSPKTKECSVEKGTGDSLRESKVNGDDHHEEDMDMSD
UniProt Q14534: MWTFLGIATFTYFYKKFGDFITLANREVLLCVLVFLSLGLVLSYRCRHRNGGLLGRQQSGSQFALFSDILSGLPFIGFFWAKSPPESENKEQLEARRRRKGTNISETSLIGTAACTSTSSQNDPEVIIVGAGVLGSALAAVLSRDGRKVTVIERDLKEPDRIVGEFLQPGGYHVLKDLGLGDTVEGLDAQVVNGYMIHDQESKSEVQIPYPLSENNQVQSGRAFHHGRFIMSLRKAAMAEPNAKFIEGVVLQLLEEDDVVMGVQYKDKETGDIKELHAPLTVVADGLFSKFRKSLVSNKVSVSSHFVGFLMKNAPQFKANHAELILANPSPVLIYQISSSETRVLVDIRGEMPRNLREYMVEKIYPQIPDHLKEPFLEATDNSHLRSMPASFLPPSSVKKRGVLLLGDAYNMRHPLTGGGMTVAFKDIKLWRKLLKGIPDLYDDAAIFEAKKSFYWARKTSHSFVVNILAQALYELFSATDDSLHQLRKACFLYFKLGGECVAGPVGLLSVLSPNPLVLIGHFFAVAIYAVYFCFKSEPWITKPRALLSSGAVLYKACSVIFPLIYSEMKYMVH
UniProt Q96EA4: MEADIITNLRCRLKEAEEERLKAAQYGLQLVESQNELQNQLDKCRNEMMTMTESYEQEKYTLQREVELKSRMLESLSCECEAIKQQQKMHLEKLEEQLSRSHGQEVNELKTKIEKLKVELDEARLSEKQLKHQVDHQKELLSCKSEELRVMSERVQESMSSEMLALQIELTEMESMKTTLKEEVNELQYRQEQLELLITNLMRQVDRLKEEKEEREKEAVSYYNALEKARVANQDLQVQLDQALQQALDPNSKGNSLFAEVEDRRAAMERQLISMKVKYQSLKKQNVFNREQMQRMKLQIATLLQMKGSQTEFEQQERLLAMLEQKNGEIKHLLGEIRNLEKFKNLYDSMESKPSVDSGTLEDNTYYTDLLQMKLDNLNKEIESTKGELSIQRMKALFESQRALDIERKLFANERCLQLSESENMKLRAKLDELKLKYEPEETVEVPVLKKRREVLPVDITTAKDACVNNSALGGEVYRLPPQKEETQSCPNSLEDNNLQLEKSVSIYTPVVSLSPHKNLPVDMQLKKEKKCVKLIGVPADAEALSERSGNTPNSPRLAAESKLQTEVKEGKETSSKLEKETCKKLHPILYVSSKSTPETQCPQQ
UniProt Q16385, whole entry, looked up: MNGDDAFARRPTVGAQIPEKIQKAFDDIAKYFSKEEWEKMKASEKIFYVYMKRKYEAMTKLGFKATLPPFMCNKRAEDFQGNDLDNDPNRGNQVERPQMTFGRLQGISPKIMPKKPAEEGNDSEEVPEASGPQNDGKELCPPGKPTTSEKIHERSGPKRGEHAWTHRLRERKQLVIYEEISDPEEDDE
UniProt Q9GZT4: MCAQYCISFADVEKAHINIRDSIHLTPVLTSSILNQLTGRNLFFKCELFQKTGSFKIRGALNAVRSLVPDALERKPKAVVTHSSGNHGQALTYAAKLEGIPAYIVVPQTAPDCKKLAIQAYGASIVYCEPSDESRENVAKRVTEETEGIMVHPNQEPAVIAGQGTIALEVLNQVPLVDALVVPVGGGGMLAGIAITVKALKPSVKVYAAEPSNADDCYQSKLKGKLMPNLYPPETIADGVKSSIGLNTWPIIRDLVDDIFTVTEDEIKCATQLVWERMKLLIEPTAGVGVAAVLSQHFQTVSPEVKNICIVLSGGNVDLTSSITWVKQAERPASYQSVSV

Experiments:
Assay in all cases: log2 fold change, soluble protein after heating vs DMSO (PISA); higher = thermal stabilisation; K562 lysate, 10 uM; active = over 0.2 and 3.5 SD of the protein, either way, in both replicates (recomputed)
[1] = compound: CN1CC[C@H](c2c(O)cc(O)c3c(=O)cc(-c4ccccc4Cl)oc23)[C@H](O)C1 [alvocidib]
In short: (§1)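 Quantification was by TMTpro 16plex LC-MS/MS with equalised channel sums, applied to the supernatant after 21,000xg for 90 min. Samples were crude K562 extract at 1 mg/mL protein in PBS pH 7.4 with 1 mM MgCl2, treated with 10 μM compound for 30 min, heated for 3 min across 48°C-58°C, pooled and brought to 0.5% NP-40 at 4°C. Values are log-two fold changes in thermal stability relative to solvent controls, from duplicates.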

[2] = compound: CN1CCc2c(c3ccccc3n2Cc2ccc(C(=O)NO)cc2)C1 [Tubastatin A]
In short: as §1

[3] = compound: CNC(=O)C1=CC=CC=C1NC2=NC(=NC=C2Cl)NC3=C(C=C(C=C3)N4CCOCC4)OC
In short: as §1

[4] = compound: CNC(=O)c1ccc(Nc2ncc(C(F)(F)F)c(NCc3nccnc3N(C)S(C)(=O)=O)n2)cc1 [defactinib]
In short: as §1

[5] = compound: CNc1nc(-c2ccc3c(N)n[nH]c3c2)cc(N2C[C@@H](C(=O)NC3CCCCC3)CC[C@H]2C)n1
In short: as §1

[6] = compound: COC(=O)N[C@@H](C)CNc1nccc(-c2cn(C(C)C)nc2-c2cc(Cl)cc(NS(C)(=O)=O)c2F)n1 [encorafenib]
In short: as §1

[7] = compound: COC(=O)[C@H](CCSC)NC(=O)C1=C(C=C(C=C1)NC[C@H](CS)N)C2=CC=CC=C2
In short: as §1

[8] = compound: COc1cc(Nc2ncc3c(n2)-c2ccc(Cl)cc2C(c2c(F)cccc2OC)=NC3)ccc1C(=O)O [alisertib]
In short: as §1

[9] = compound: COc1cc2nc(-c3cc(F)ccc3O)nc(N[C@@H]3CNC[C@H]3C(C)(C)O)c2cc1OC
In short: as §1

[10] = compound: COc1cc2ncnc(Nc3ccc(F)c(Cl)c3)c2cc1OCCCN1CCOCC1 [gefitinib]
In short: as §1

[11] = compound: CS(=O)(=O)CCNCc1ccc(-c2ccc3ncnc(Nc4ccc(OCc5cccc(F)c5)c(Cl)c4)c3c2)o1 [lapatinib]
In short: as §1

[12] = compound: CS(=O)(=O)N1CCN(Cc2cc3nc(-c4cccc5[nH]ncc45)nc(N4CCOCC4)c3s2)CC1 [pictilisib]
In short: as §1

[13] = compound: C[C@@H](Oc1cc(-c2cnn(C3CCNCC3)c2)cnc1N)c1c(Cl)ccc(F)c1Cl [crizotinib]
In short: as §1

[14] = compound: C[C@H](C1=CC=C(C=C1)C(=O)NC2=C3C=CNC3=NC=C2)N
In short: as §1

[15] = compound: C[C@H](Nc1ncnc2nc[nH]c12)c1cc2cccc(Cl)c2c(=O)n1-c1ccccc1 [duvelisib]
In short: as §1

[16] = compound: Cc1cc(Nc2cc(CN3CCOCC3)c3nc(C)c(Cc4ccc(Cl)cc4F)n3n2)n[nH]1 [gandotinib]
In short: as §1

[17] = compound: Cc1cc(Nc2cc(N3CCN(C)CC3)nc(Sc3ccc(NC(=O)C4CC4)cc3)n2)n[nH]1 [tozasertib]
In short: as §1

[18] = compound: Cc1ccc(-n2nc(C(C)(C)C)cc2NC(=O)Nc2ccc(OCCN3CCOCC3)c3ccccc23)cc1 [doramapimod]
In short: as §1

[19] = compound: Cc1ccc(NC(=O)c2ccc(CN3CC[C@H](N(C)C)C3)c(C(F)(F)F)c2)cc1Nc1nccc(-c2cncnc2)n1 [bafetinib]
In short: as §1

[20] = compound: Cc1cccc(CC(=O)N2CCc3c2ccc(-c2cn(C)c4ncnc(N)c24)c3F)n1
In short: as §1

Measured: log2 fold change

SPTLC1 (UniProt O15269)
inactive: [1] -0.034 | [2] -0.02 | [3] -0.01 | [4] 0.003 | [5] 0 | [6] 0.033 | [7] -0.048 | [8] 0.029 | [9] 0.026 | [10] -0.039 | [11] -0.018 | [12] 0.021 | [13] -0.092 | [14] -0.042 | [15] -0.002 | [16] 0.002 | [17] 0.011 | [18] 0.009 | [19] -0.032 | [20] 0.049

SSRP1 (UniProt Q08945)
inactive: [1] 0.011 | [2] -0.023 | [3] 0.009 | [4] -0.004 | [5] -0.014 | [6] -0.002 | [7] -0.001 | [8] 0.018 | [9] -0.019 | [10] -0.015 | [11] -0.007 | [12] -0.007 | [13] 0.008 | [14] -0.006 | [15] 0.008 | [16] -0.035 | [17] 0.002 | [18] 0.039 | [19] -0.026 | [20] 0.006

SSB (UniProt E7ERC4)
inactive: [1] 0.132 | [2] 0.154 | [3] -0.072 | [4] -0.285 | [5] -0.023 | [6] 0.081 | [7] 0.013 | [8] -0.091 | [9] 0.095 | [10] 0.072 | [11] -0.151 | [12] -0.15 | [13] -0.103 | [15] 0.141 | [16] -0.263 | [17] -0.028 | [18] 0.032 | [19] -0.271 | [20] -0.121
active: [14] 1.41

ST13 (UniProt P50502)
inactive: [1] -0.009 | [2] 0.022 | [3] -0.015 | [4] -0.015 | [5] 0.001 | [6] -0.011 | [7] -0.014 | [8] 0.02 | [9] 0.001 | [10] 0.037 | [11] -0.014 | [12] -0.01 | [13] 0.004 | [14] 0.016 | [15] -0.004 | [16] 0.002 | [17] 0.013 | [18] 0.013 | [19] -0.004 | [20] -0.052

SPCS1, A0A5F9YFS9
inactive: [1] 0.045 | [2] 0.01 | [3] -0.01 | [4] -0.025 | [5] 0.297 | [6] 0.053 | [7] -0.031 | [8] -0.086 | [9] -0.016 | [10] 0.001 | [11] -0.022 | [12] -0.125 | [13] 0.021 | [14] -0.01 | [15] -0.229 | [16] -0.004 | [17] -0.078 | [18] -0.074 | [19] -0.162 | [20] -0.028

SRP9 (UniProt P49458)
inactive: [1] 0.013 | [2] 0.023 | [3] -0.006 | [4] 0.01 | [5] -0.03 | [6] -0.005 | [7] 0.008 | [8] 0.017 | [9] -0.02 | [10] -0.021 | [11] 0 | [12] 0.043 | [13] 0.014 | [14] 0.043 | [15] 0.026 | [16] -0.015 | [17] 0.026 | [18] 0.004 | [19] 0.013 | [20] 0.037

SPR (UniProt P35270)
active: [12] 0.472 | [16] 0.467
inactive: [1] 0.164 | [2] -0.1 | [3] 0.071 | [4] 0.019 | [5] 0.01 | [6] -0.097 | [7] 0.22 | [8] 0.163 | [9] -0.017 | [10] -0.013 | [11] -0.015 | [13] 0.276 | [14] -0.029 | [15] -0.059 | [17] 0.025 | [18] -0.06 | [19] -0.09 | [20] -0.117

SPATA5L1 (UniProt Q9BVQ7)
inactive: [1] 0.022 | [2] -0.16 | [3] 0.019 | [4] 0.036 | [5] 0.23 | [6] 0 | [7] -0.061 | [8] 0.024 | [9] -0.052 | [10] -0.013 | [11] -0.017 | [12] 0.011 | [13] -0.107 | [14] 0.016 | [15] 0.001 | [16] -0.076 | [17] 0.013 | [18] -0.035 | [19] -0.001 | [20] 0.049

2 records picked at random from the list so far:
SRP9 (UniProt P49458)
inactive: [1] 0.013 | [2] 0.023 | [3] -0.006 | [4] 0.01 | [5] -0.03 | [6] -0.005 | [7] 0.008 | [8] 0.017 | [9] -0.02 | [10] -0.021 | [11] 0 | [12] 0.043 | [13] 0.014 | [14] 0.043 | [15] 0.026 | [16] -0.015 | [17] 0.026 | [18] 0.004 | [19] 0.013 | [20] 0.037

SPR (UniProt P35270)
active: [12] 0.472 | [16] 0.467
inactive: [1] 0.164 | [2] -0.1 | [3] 0.071 | [4] 0.019 | [5] 0.01 | [6] -0.097 | [7] 0.22 | [8] 0.163 | [9] -0.017 | [10] -0.013 | [11] -0.015 | [13] 0.276 | [14] -0.029 | [15] -0.059 | [17] 0.025 | [18] -0.06 | [19] -0.09 | [20] -0.117

Following part:

SPRYD7 (UniProt Q5W111)
inactive: [1] 0.025 | [2] 0.092 | [3] -0.024 | [4] -0.003 | [5] -0.048 | [6] -0.038 | [7] -0.065 | [8] -0.128 | [9] -0.021 | [10] 0.014 | [11] -0.062 | [12] 0.009 | [13] 0.009 | [14] -0.048 | [15] -0.048 | [16] 0.043 | [17] 0.01 | [18] -0.039 | [19] -0.061 | [20] 0.143

STARD3NL (UniProt O95772)
inactive: [1] -0.063 | [2] -0.006 | [3] -0.012 | [4] 0.058 | [5] -0.074 | [6] 0.087 | [7] -0.083 | [8] 0.033 | [9] 0.042 | [10] 0.136 | [11] -0.046 | [12] -0.002 | [13] -0.065 | [14] -0.152 | [15] 0.006 | [16] 0.168 | [17] 0.05 | [18] 0.037 | [19] -0.058 | [20] 0.131

SRRT (UniProt Q9BXP5)
inactive: [1] 0.014 | [2] -0.195 | [3] 0.008 | [4] -0.013 | [5] -0.02 | [6] 0.024 | [7] 0.202 | [8] 0.03 | [9] -0.01 | [10] 0.009 | [11] 0.005 | [12] -0.029 | [13] -0.055 | [14] 0.059 | [15] -0.007 | [16] -0.072 | [17] 0.032 | [18] 0.066 | [19] -0.023 | [20] -0.018

SRSF11 (UniProt Q05519)
inactive: [1] -0.062 | [2] 0.029 | [3] -0.033 | [4] -0.041 | [5] 0.012 | [6] -0.003 | [7] -0.029 | [8] 0.025 | [9] 0.007 | [10] -0.001 | [11] -0.029 | [12] 0.019 | [13] 0.051 | [14] -0.01 | [15] -0.012 | [16] -0.046 | [17] 0.002 | [18] -0.014 | [19] 0.008 | [20] -0.004

SQLE (UniProt Q14534)
active: [2] 0.377 | [7] 0.437
inactive: [1] 0.003 | [3] 0.018 | [4] -0.009 | [5] -0.022 | [6] 0.002 | [8] 0.059 | [9] -0.015 | [10] -0.045 | [11] -0.056 | [12] -0.04 | [13] -0.057 | [14] -0.025 | [15] -0.057 | [16] -0.028 | [17] 0.068 | [18] -0.035 | [19] -0.047 | [20] 0.031

SPDL1 (UniProt Q96EA4)
inactive: [1] -0.036 | [2] -0.033 | [3] 0.032 | [4] 0.036 | [5] -0.016 | [6] -0.005 | [7] 0.011 | [8] 0.005 | [9] -0.01 | [10] -0.019 | [11] 0.013 | [12] 0.022 | [13] 0.023 | [14] -0.08 | [15] 0.006 | [16] 0.046 | [17] 0.049 | [18] -0.008 | [19] -0.032 | [20] 0.042

SSX2 (UniProt Q16385)
inactive: [1] -0.02 | [2] -0.064 | [3] 0.07 | [4] -0.014 | [5] -0.003 | [6] 0.01 | [7] 0 | [8] 0.005 | [9] -0.007 | [10] -0.017 | [11] 0.023 | [12] 0.012 | [13] 0.08 | [14] 0.013 | [15] -0.085 | [16] 0.034 | [17] -0.044 | [18] 0.036 | [19] -0.009 | [20] -0.052

SRR (UniProt Q9GZT4)
inactive: [1] 0.01 | [2] -0.175 | [3] -0.035 | [4] 0.067 | [5] 0.133 | [6] 0.01 | [7] 0.058 | [8] 0.077 | [9] -0.107 | [10] 0.008 | [11] -0.066 | [12] -0.04 | [13] 0.006 | [14] 0.03 | [15] -0.043 | [16] -0.026 | [17] -0.059 | [18] 0.033 | [19] -0.029 | [20] -0.047
